Experimental data as given in patent publication US20210253520A1 (UNIVERSITAT DE BARCELONA, priority 2018, published 2021).
The same purity stands for every peptide and may come from a single statement. Strings that start with PEPTIDE1 are HELM notation: dots part the residues, brackets hold end groups and non-standard residues.

Assay: general procedure: Fmoc solid-phase peptide synthesis; 2-Chlorotrityl chloride (CTC) resin; DIPCDI/HOBt
Details: whole synthesis; for final HPLC purity: area integration of HPLC trace

| Substance | crude yield | isolated yield | final HPLC purity |
| --- | --- | --- | --- |
| DAdec-Thr-Dab-cyc/o(S—S)[Cys-Dab-DLeu-Leu-Dab-Dab-Ttr] | 62% | 18% | >99% |
| DAdec-Thr-Dab-cyc/o(S—S)[Cys-Dab-DPhe-Leu-Dab-Dab-Ttr] | 42% | 17% | >99% |
| Octanoyl-Dab-Thr-Dab-cyc/o(S—S)[Cys-Dab-DLeu-OLe-Dab-Dab-Ttr] | 24% | 12% | >99% |
| PEPTIDE1{[D-Adec].T.[Dab].C.[Dab].[dF].[OLe].[Dab].[Dab].[Ttr]}$PEPTIDE1,PEPTIDE1,4:R3-10:R3$$$V2.0 | 40% | 12% | >99% |
| PEPTIDE1{[D-Adec].T.[Dab].C.[Dab].[dL].[OLe].[Dab].[Dab].[Ttr]}$PEPTIDE1,PEPTIDE1,4:R3-10:R3$$$V2.0 | 27% | 13% | >99% |
| PEPTIDE1{[Oct].[Dab].T.[Dab].C.[Dab].[dF].[OLe].[Dab].[Dab].[Ttr]}$PEPTIDE1,PEPTIDE1,5:R3-11:R3$$$V2.0 | 34% | 10% | >99% |
